Data from paper PMC10970924 (Life, 2024).

System: chicken erythrocyte genomic DNA
Assay: Spectrophotometry of complexation with genomic DNA

| Structure (SMILES) | Absorption Maximum (DNA concentration 15 µg/mL) | Absorption Maximum (DNA concentration 20 µg/mL) | Absorption Maximum (DNA concentration 30 µg/mL) | Absorption Maximum (DNA concentration 60 µg/mL) | Absorption Maximum without DNA |
| --- | --- | --- | --- | --- | --- |
| COc1cccc2c1C(=O)c1c(O)c3c(c(O)c1C2=O)C[C@@](O)(C(=O)CO)C[C@@H]3O[C@H]1C[C@H](N)[C@H](O)[C@H](C)O1 [DOX, Doxorubicin, reference compound] | 495 nm | 495 nm | 501 nm | 506 nm | 481 nm |
| COc1cccc2c1C(=O)c1c(O)c3c(c(O)c1C2=O)CC(O)(C(=O)CO)CC3OC1CC(NC(=O)c2cnc(C)c3c2COC(C)(C)O3)C(O)C(C)O1 (stereo not drawn) [DOX-1, N-(3-hydroxy-2-methyl-6-((3,5,12-trihydroxy-3-(2-hydroxyacetyl)-10-methoxy-6,11-dioxo-1,2,3,4,6,11-hexahydrotetracen-1-yl)oxy)tetrahydro-2H-pyran-4-yl)-2,2,8-trimethyl-4H-[1,3]dioxino[4,5-c]pyridine-5-carboxamide] | 490 nm | 491 nm | 488 nm | 490 nm | 492 nm |
| COc1cccc2c1C(=O)c1c(O)c3c(c(O)c1C2=O)CC(O)(C(=O)CO)CC3OC1CC(NC(=O)/C=C/c2cnc(C)c3c2COC(C)(C)O3)C(O)C(C)O1 (stereo not drawn) [DOX-2, (E)-N-(3-hydroxy-2-methyl-6-((3,5,12-trihydroxy-3-(2-hydroxyacetyl)-10-methoxy-6,11-dioxo-1,2,3,4,6,11-hexahydrotetracen-1-yl)oxy)tetrahydro-2H-pyran-4-yl)-3-(2,2,8-trimethyl-4H-[1,3]dioxino[4,5-c]pyridin-5-yl)acrylamide] | 490 nm | 490 nm | 490 nm | 491 nm | 490 nm |
